# Structures can show the parent of a compound that is named as a salt. The list shows a part of the results. Hit calls seldom repeat between salt and free forms of one compound.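 Kinases, fused to nanoluciferase, were expressed in K562 cells; luminescence was measured every 4 h from 2 to 18 h as percent of control (DMSO = 100%, positive control = 0%). A time point is decreased if signal falls significantly (2 sigma). Hits were called by the authors by a rule that is not shown; the count of time points alone does not decide it.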
# Target: HER2 (UniProt P04626)
# Assay: number of time points (of 5) at which kinase-Nluc abundance scored as decreased, DMSO-normalised (count); higher = more persistent destabilization
# Conditions: K562; 2-18 h
row,SMILES,number of time points
1,CN1CCN(c2cc(-c3ccncc3)c(-c3ccc4ccccc4c3)nn2)CC1 (10 µM),0
2,CC(O)(C#Cc1ccc2c(c1)N(c1nc(N)ncc1Cl)CC2)c1nccs1 (stereo not drawn) (2.5 µM),0
3,COc1ccc(Nc2ncc(C(F)(F)F)c(NC3CC3)n2)cc1OC (10 µM),2
4,O=c1cc(N2CCOCC2)oc2c(-c3ccc4c(c3)OCCO4)csc12 (2.5 µM),0
5,N[C@@H]1CCCN(c2c(/C=C3\SC(=O)NC3=O)cccc2-c2ccccc2)C1 (10 µM),0
6,N#Cc1ccc(-c2cnc3[nH]cc(NC(=O)c4cccnc4)c3c2)cc1 (10 µM),0
7,COc1ccc(Br)cc1NC(=O)Nc1cccc2c1ccn2Cc1ccnc(N)c1 (2.5 µM),0
8,COc1cc(N2CCOCC2)ccc1Nc1ncc(F)c(Nc2ccccc2NS(C)(=O)=O)n1 (10 µM),0
9,COc1ccc(-c2cc(=O)c3c(OC)cc(OC)c(OC)c3o2)cc1 [6-Demethoxytangeretin] (10 µM),0
10,COc1cc2c(cc1O)C[C@H]1c3cc(O)c(OC)cc3CC[N@@+]1(C)C2 [Phellodendrine] (10 µM),0
11,CO[C@H]1C[C@@H]2CC[C@@H](C)[C@@](O)(O2)C(=O)C(=O)N2CCCC[C@H]2C(=O)O[C@H]([C@H](C)C[C@@H]2CC[C@@H](OC(=O)C(C)(CO)CO)[C@H](OC)C2)CC(=O)[C@H](C)/C=C(\C)[C@@H](O)[C@@H](OC)C(=O)[C@H](C)C[C@H](C)/C=C/C=C/C=C/1C [Temsirolimus] (2.5 µM),0
12,O=C(ON=C1c2ccccc2-c2nc3ccccc3nc21)c1ccco1 (2.5 µM),0
13,COc1ccc(S(=O)(=O)Nc2cc(-c3c(O)ccc4ccccc34)c(O)c3ccccc23)cc1 (10 µM),0
14,Cc1cccc(COc2cccc(/C=C3\C(=O)NN(c4ccccc4)C3=O)c2)c1 (10 µM),1
15,CC(C)Oc1ccc(F)c(-c2cnc(N)c(C(=O)Nc3cnccc3N3CCC[C@@H](C(=O)O)C3)n2)c1 (2 µM),0
16,COc1cc(F)ccc1-c1ncnc(Nc2cccc(C[S@](C)(=N)=O)c2)n1 [Atuveciclib] (2.5 µM),0
17,CC(C)n1ncnc1-c1cn2c(n1)-c1ccc(O[C@@H](C)C(N)=O)cc1OCC2 (10 µM),0

row,SMILES,number of time points
1,Cn1c(CNc2cccc(C(=O)NCc3ccccc3C(F)(F)F)c2)nnc1-c1ccncc1 (10 µM),0
2,O=Nc1c(-c2c(O)[nH]c3cc(Br)ccc23)[nH]c2ccccc12 [GSK 3 Inhibitor IX] (2.5 µM),0
3,Nc1ncc(C(=O)NC2CN(C(=O)C3CC3)C2)c2ccc(-c3cccc(F)c3)nc12 (2 µM),0
4,O=C(Nc1cc(Cl)cc2c1[nH]c1cnccc12)c1cccnc1 (10 µM),0
5,c1ccc(Cn2c(-c3ccc(OC[C@H](C4CCNCC4)n4c(-c5ccccc5)nc5ccccc54)cc3)nc3ccccc32)cc1 [Deltarasin] (2.5 µM),0
6,COc1cc2ncnc(Nc3cccc(I)c3)c2cc1OC (2.5 µM),0
7,Clc1ccc(C(c2ccc(Cl)cc2)[n+]2ccn(CC(OCc3ccc(Cl)cc3Cl)c3ccc(Cl)cc3Cl)c2)cc1 (stereo not drawn) [Calmidazolium chloride] (2.5 µM),0
8,O=C(Nc1cccnc1)c1cc(-c2ccnc(F)c2)ccc1OCc1ccccc1 (10 µM),0
9,c1nn(C2CCOCC2)cc1Nc1ncc2nnn(-c3ccc4cn[nH]c4c3)c2n1 (10 µM),0
10,COC(=O)[C@H](CCSC)NC(=O)c1ccc(NC[C@@H](N)CS)cc1-c1ccccc1 [FTI-277 (hydrochloride)] (10 µM),0
11,Cc1cc(Nc2cc(N)ncn2)c(=O)n2c1C(=O)NC21CCCCC1 [Tomivosertib] (10 µM),0
12,CCc1c[nH]c2ncnc(N3CC[C@](N)(CNC(=O)c4ccc(F)cc4F)C3)c12 (10 µM),0
13,Nc1ncnc2c1nc(Br)n2[C@@H]1O[C@@H]2COP(=O)(O)O[C@H]2[C@H]1O [8-Bromo-cAMP sodium salt] (10 µM),0
14,CC(C)n1c(=O)n(C)c2cnc3cc(F)c(-c4ccc(OCCCN5CCCCC5)nc4)cc3c21 (10 µM),0
15,Cc1ccc(C)c(OCCn2cc(C(=O)O)c3ccccc32)c1 (10 µM),0
16,COCCOc1ccc2c(c1)ncn2-c1ccc2cccc(N3CCC(N)CC3)c2n1 (10 µM),2

# Reformatted as tab-separated lines: part of the list above.
row	SMILES	number of time points
3	Nc1ncc(C(=O)NC2CN(C(=O)C3CC3)C2)c2ccc(-c3cccc(F)c3)nc12 (2 µM)	0
4	O=C(Nc1cc(Cl)cc2c1[nH]c1cnccc12)c1cccnc1 (10 µM)	0
5	c1ccc(Cn2c(-c3ccc(OC[C@H](C4CCNCC4)n4c(-c5ccccc5)nc5ccccc54)cc3)nc3ccccc32)cc1 [Deltarasin] (2.5 µM)	0
6	COc1cc2ncnc(Nc3cccc(I)c3)c2cc1OC (2.5 µM)	0
7	Clc1ccc(C(c2ccc(Cl)cc2)[n+]2ccn(CC(OCc3ccc(Cl)cc3Cl)c3ccc(Cl)cc3Cl)c2)cc1 (stereo not drawn) [Calmidazolium chloride] (2.5 µM)	0
8	O=C(Nc1cccnc1)c1cc(-c2ccnc(F)c2)ccc1OCc1ccccc1 (10 µM)	0

# From the supplement of paper PMC12823440, “Inhibitors supercharge kinase turnover through native proteolytic circuits” (Nature, 2025)
